From article PMC6447546
Results are given in words; binding and its absence hold for the method and conditions named. In cells and extracts the contact can be indirect. Some binding calls cover weakened binding; strength is not graded here. Tags and fused reporters may be left off the sequences shown.

How the values were obtained:
[1] = molecular target: T1, endogenous IKKα (human (endogenous in HCT116)) (UniProt O15111); experiment: co-IP; HCT116 cells transfected with FLAG-CT55 only, treated with TNF-α (20 ng/ml) for 6 h; immunoprecipitation of endogenous IKKα and IKKβ (blot for CT55) or of FLAG-CT55 (blot for IKKα and IKKβ); protein G-agarose, 4 h at 4 °C
T1 sequence: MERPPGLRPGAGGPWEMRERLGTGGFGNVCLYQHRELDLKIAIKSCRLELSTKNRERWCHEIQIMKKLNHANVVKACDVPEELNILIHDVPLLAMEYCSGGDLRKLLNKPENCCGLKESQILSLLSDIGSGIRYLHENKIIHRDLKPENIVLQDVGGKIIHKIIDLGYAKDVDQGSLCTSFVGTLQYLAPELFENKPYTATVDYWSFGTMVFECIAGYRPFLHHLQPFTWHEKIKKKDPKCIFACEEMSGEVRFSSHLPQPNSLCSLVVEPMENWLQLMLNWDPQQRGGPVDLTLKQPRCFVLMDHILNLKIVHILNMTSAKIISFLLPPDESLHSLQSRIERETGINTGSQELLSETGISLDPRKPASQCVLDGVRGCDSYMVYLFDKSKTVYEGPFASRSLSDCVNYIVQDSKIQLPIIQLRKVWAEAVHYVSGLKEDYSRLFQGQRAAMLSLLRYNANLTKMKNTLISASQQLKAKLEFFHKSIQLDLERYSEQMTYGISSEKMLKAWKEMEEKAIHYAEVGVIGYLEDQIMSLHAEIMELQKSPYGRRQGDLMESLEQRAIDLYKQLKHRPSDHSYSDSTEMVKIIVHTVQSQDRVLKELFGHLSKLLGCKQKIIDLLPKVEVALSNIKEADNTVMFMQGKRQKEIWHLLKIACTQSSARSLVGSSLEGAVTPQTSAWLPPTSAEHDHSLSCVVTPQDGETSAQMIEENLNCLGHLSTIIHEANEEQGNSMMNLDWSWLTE

[2] = molecular target: T2, endogenous IKKβ (human (endogenous in HCT116)) (UniProt O14920); experiment: as above
T2 sequence: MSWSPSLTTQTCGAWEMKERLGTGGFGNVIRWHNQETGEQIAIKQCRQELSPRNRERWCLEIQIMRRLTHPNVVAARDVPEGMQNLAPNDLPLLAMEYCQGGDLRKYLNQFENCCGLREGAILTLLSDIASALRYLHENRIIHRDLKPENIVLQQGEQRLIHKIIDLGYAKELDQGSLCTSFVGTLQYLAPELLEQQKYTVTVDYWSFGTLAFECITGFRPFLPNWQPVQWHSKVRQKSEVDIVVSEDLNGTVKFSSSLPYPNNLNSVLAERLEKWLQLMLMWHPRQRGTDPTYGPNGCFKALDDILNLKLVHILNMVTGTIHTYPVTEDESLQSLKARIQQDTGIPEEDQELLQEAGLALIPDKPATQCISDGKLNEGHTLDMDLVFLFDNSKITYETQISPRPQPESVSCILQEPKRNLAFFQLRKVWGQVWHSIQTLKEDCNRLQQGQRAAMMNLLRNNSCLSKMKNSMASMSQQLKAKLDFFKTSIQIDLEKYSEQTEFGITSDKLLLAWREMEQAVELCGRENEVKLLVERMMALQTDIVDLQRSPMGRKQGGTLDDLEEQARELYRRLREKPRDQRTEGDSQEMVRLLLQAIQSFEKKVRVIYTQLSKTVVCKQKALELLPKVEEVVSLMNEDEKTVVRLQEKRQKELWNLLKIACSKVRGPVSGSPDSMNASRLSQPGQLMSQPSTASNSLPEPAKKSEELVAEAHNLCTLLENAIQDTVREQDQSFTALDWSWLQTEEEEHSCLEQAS

HA-tagged IKKα = molecular target: T3, HA-tagged IKKα (UniProt O15111); experiment: co-IP; HCT116 cells cotransfected with FLAG-CT55 and HA-IKKα and IKKβ for 24 h, treated with TNF-α (20 ng/ml) for 6 h; lysates (20 mM Tris-HCl pH 7.4, 150 mM NaCl, 1 mM EDTA) immunoprecipitated with anti-Flag or anti-HA antibody and protein G-agarose, 4 h at 4 °C; western blot
T3 sequence: T1 sequence

HA-tagged IKKβ = molecular target: T4, HA-tagged IKKβ (UniProt O14920); experiment: as above
T4 sequence: T2 sequence

Measured: binding

B1: FLAG-tagged CT55 (cancer testis antigen 55) (protein, UniProt Q8WUE5 1-264)
chain: MLRLLRLALAFYGRTADPAERQGPQQQGLPQGDTQLTTVQGVVTSFCGDYGMIDESIYFSSDVVTGNVPLKVGQKVNVVVEEDKPHYGLRAIKVDVVPRHLYGAGPSDSGTRVLIGCVTSINEDNIYISNSIYFSIAIVSEDFVPYKGDLLEVEYSTEPGISNIKATSVKPIRCIHTEEVCITSVHGRNGVIDYTIFFTLDSVKLPDGYVPQVDDIVNVVMVESIQFCFIWRAISITPVHKSSSGFQDDGGLGRPKRERRSQSI
binds: all assays above
